{
  "sequences": {"note": "Protein sequences, listed by entry. Tags and fused reporters are not part of them. Lines headed by an entry give the natural chain unless they say otherwise; changes in a name come on top.", "UniProt P41240": "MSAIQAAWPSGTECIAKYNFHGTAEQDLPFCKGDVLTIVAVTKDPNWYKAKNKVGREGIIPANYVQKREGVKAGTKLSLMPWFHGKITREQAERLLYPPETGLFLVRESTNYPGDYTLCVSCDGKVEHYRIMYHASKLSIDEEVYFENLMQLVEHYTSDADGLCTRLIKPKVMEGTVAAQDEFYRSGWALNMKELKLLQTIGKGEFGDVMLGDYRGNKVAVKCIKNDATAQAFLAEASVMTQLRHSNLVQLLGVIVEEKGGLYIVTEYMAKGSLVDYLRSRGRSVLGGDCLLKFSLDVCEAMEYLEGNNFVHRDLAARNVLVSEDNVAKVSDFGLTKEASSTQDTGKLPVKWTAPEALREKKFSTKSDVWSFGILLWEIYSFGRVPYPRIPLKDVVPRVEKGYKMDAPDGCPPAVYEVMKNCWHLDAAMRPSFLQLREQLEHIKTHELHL"},
  "source": "the supplement of paper PMC12823440",
  "about": "“Inhibitors supercharge kinase turnover through native proteolytic circuits” (Nature, 2025)",
  "note": "The list shows a part of the results. The calls rarely recur for the same compound in another form.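 Kinases, fused to nanoluciferase, were expressed in K562 cells; luminescence was measured every 4 h from 2 to 18 h as percent of control (DMSO = 100%, positive control = 0%). A time point is decreased if signal falls significantly (2 sigma). Hits were called by the authors by a rule that is not shown; the count of time points alone does not decide it.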",
  "data": [
    {"target": "CSK (UniProt P41240)", "test": "number of time points (of 5) at which kinase-Nluc abundance scored as decreased, DMSO-normalised (count); higher = more persistent destabilization", "conditions": "K562; 2-18 h", "values": [
      {"molecule": "N#Cc1ccc2[nH]c(O)c(-c3ccc(CN4CCOCC4)cn3)c2c1", "note": "(10 µM)", "number of time points": 0},
      {"molecule": "CCN(CC)CCCCNc1ncc2cc(-c3cc(OC)cc(OC)c3)c(NC(=O)NC(C)(C)C)nc2n1", "note": "(10 µM)", "number of time points": 0},
      {"molecule": "Oc1ccc(-c2nc(-c3ccc(F)cc3)c(-c3ccncc3)[nH]2)cc1", "note": "(2.5 µM)", "number of time points": 0},
      {"molecule": "O=C1NCCc2[nH]c(-c3ccnc(-c4cnc5ccccc5c4)c3)cc21", "note": "(10 µM)", "number of time points": 0},
      {"molecule": "Cc1cc(N2CCOCC2)cc2[nH]c(-c3c(NC[C@@H](O)c4cccc(Cl)c4)cc[nH]c3=O)nc12", "note": "(10 µM)", "number of time points": 0},
      {"molecule": "COc1cc(OC)cc(-c2cc3cnc(N)nc3nc2NC(=O)NC(C)(C)C)c1", "note": "(10 µM)", "number of time points": 0},
      {"molecule": "Cc1ccc(NC(=O)Nc2nnc(Sc3ncnc4cc(OCCCN5CCOCC5)ccc34)s2)cc1", "note": "(10 µM)", "number of time points": 0},
      {"molecule": "N#C/C(=C\\c1ccc(O)c(O)c1)C(=O)NCCCc1ccccc1", "note": "(10 µM)", "number of time points": 0},
      {"molecule": "Cc1cccc([C@@H](CO)NC(=O)[C@@H](C)N2Cc3ccc(-c4nc(NC5CCOCC5)ncc4Cl)cc3C2=O)c1", "note": "[ERK1/2 inhibitor 1] (10 µM)", "number of time points": 0},
      {"molecule": "CCOc1ccn(-c2ccc(F)cc2)c(=O)c1C(=O)Nc1ccc(Oc2ccnc(N)c2Cl)c(F)c1", "note": "(10 µM)", "number of time points": 0},
      {"molecule": "O=c1cc(N2CCOCC2)oc2c(-c3ccccc3)cccc12", "note": "(10 µM)", "number of time points": 0},
      {"molecule": "O=c1oc2c(O)c(O)cc3c(=O)oc4c(O)c(O)cc1c4c23", "note": "[Ellagic acid] (10 µM)", "number of time points": 0},
      {"molecule": "C=CC(=O)Nc1ccc2ncnc(Nc3cccc(Br)c3)c2c1", "note": "(10 µM)", "number of time points": 0},
      {"molecule": "Cc1c(Cn2c(C)nc3c(C(=O)O)cc(N4CCOCC4)cc32)cccc1C(F)(F)F", "note": "(10 µM)", "number of time points": 0},
      {"molecule": "Cc1c[nH]c2nccc(Oc3c(F)cc(Nc4cc(Cl)nc(N)n4)cc3F)c12", "note": "(10 µM)", "number of time points": 0},
      {"molecule": "CC(C)CC(=O)Nc1n[nH]c2c1CN(C(=O)C1CCN(C)CC1)C2(C)C", "note": "(2.5 µM)", "number of time points": 0},
      {"molecule": "CCN(CCO)CCCOc1ccc2c(Nc3cc(CC(=O)Nc4cccc(F)c4)[nH]n3)ncnc2c1", "note": "[Barasertib-HQPA] (10 µM)", "number of time points": 0},
      {"molecule": "N#C/C(=C\\c1ccc(O)c(O)c1)C(=O)NCc1ccccc1", "note": "(10 µM)", "number of time points": 0},
      {"molecule": "COc1nccc(-c2c(-c3ccc(F)cc3)ncn2C2CCC(O)CC2)n1", "note": "(stereo not given) (10 µM)", "number of time points": 0},
      {"molecule": "O=c1c(-c2ccc(O)cc2)coc2cc(O)cc(O)c12", "note": "[Genistein] (10 µM)", "number of time points": 0},
      {"molecule": "CCOc1cc2ncc(C#N)c(Nc3ccc(OCc4ccccn4)c(Cl)c3)c2cc1NC(=O)/C=C/CN(C)C", "note": "[Neratinib] (10 µM)", "number of time points": 0},
      {"molecule": "CN1CCC(Nc2ncc3ncnc(Nc4ccc(F)c(Cl)c4)c3n2)CC1", "note": "[Falnidamol] (10 µM)", "number of time points": 0},
      {"molecule": "O=c1c(O)c(-c2ccc(O)c(O)c2)oc2cc(O)cc(O)c12", "note": "[Quercetin (dihydrate)] (10 µM)", "number of time points": 0},
      {"molecule": "COc1ccc(C=C(C#N)c2cccnc2)cc1OC", "note": "(10 µM)", "number of time points": 0},
      {"molecule": "Nc1ncnc2c1c(-c1ccc(Oc3ccccc3)cc1)cn2C1CCCC1", "note": "(2.5 µM)", "number of time points": 0},
      {"molecule": "COc1cc2nc(C)nc(N[C@H](C)c3cc(N)cc(C(F)(F)F)c3)c2cc1O[C@H]1CCOC1", "note": "(10 µM)", "number of time points": 0},
      {"molecule": "N#CC(=Cc1ccc(O)c(O)c1)C(=O)NCc1ccccc1", "note": "(mixture of isomers) (10 µM)", "number of time points": 0},
      {"molecule": "O=C1Cc2c([nH]c3ccc(Br)cc23)-c2ncccc2N1", "note": "[1-Azakenpaullone] (10 µM)", "number of time points": 0},
      {"molecule": "COc1cc2c(Nc3ccc(Br)cc3F)ncnc2cc1OCCn1ccnn1", "note": "(10 µM)", "number of time points": 0},
      {"molecule": "CNc1nc(-c2ccc3c(N)n[nH]c3c2)cc(N2C[C@@H](C(=O)NC3CCCCC3)CC[C@H]2C)n1", "note": "(10 µM)", "number of time points": 0},
      {"molecule": "Cc1cc(F)c(C(=O)Nc2cccc(-c3nncn3C(C)C)n2)cc1-n1cnc(C2CC2)c1", "note": "[Selonsertib] (10 µM)", "number of time points": 0},
      {"molecule": "COc1cc(C)c(Sc2cnc(NC(=O)c3ccc(CNC(C)C(C)(C)C)cc3)s2)cc1C(=O)N1CCN(C(C)=O)CC1", "note": "(stereo not given) (2.5 µM)", "number of time points": 0},
      {"molecule": "CCN(CC)CCCCNc1ncc2cc(-c3c(Cl)cccc3Cl)c(NC(=O)NC(C)(C)C)nc2n1", "note": "(2.5 µM)", "number of time points": 0},
      {"molecule": "COc1cc(C=C(C#N)C(N)=O)cc(CSc2nc3ccccc3s2)c1O", "note": "(10 µM)", "number of time points": 0},
      {"molecule": "C[C@]1(O)C[C@@H](c2nc(-c3ccc4ccc(-c5ccccc5)nc4c3)c3c(N)nccn32)C1", "note": "[Linsitinib] (2.5 µM)", "number of time points": 0}
    ]}
  ]
}
